About 820 (0.2%) of roughly 410,000 compounds were called active. These results got no clear call from the source, so the numbers are uncertain. The call rests on the fitted dose curve; in most records, active means well fitted activation curve with a large enough effect; inconclusive means small, poorly fitted or top-dose-only effect; inactive means flat fitted curve, though single readings scatter; cell line not stated here.
Assay: A Quantitative High throughput Screen to Identify Chemical Modulators of PINK1 Expression; further: nearly all actives have a fitted effect of over 65% in size
Details: PINK1 immunofluorescence, high-content cytometry, 24 h
Potency means the concentration at half of the fitted maximal effect.

Structure (SMILES)	Potency
COc1ccc(OP(C)(=O)Nc2ccccn2)cc1 (stereo unspecified)	inconclusive: 4.47 µM

From PubChem BioAssay AID624263 (National Center for Advancing Translational Sciences (NCATS), 2012)
